No constants are given. Whether binding was seen depends on the method and setting. Binding seen in cells or lysates may run through a third protein. Binding calls can cover weak binding; strength is not graded here. Tags and fused reporters may be left off the sequences shown.
Molecular target: T1, zebrafish Npas4l-V5 (zebrafish) (UniProt P0DOC7)
T1 sequence: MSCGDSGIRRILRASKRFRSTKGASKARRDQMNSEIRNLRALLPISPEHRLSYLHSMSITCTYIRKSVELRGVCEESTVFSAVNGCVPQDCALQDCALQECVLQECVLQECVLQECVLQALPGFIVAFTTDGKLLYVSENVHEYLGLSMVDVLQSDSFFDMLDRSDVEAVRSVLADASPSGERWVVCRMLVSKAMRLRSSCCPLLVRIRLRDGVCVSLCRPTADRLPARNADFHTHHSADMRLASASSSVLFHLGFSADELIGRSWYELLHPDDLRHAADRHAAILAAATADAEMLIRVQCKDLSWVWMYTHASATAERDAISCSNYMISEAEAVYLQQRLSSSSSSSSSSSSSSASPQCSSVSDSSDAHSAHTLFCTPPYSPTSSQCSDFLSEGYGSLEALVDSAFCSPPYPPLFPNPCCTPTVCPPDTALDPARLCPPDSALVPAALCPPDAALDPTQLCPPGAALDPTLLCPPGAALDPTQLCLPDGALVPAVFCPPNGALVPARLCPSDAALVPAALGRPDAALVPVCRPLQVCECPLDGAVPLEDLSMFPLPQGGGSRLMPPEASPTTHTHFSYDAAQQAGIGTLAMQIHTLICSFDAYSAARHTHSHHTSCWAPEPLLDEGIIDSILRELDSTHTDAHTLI
Test: co-IP

binding: binds
Substance: zebrafish Arnt1-myc
